Experimental data reported in article PMC8748641.
These are yes or no findings as the source states them, for the method shown. In cells and extracts the contact can be indirect. A result given as binding can be weak or reduced; the word gives no strength. Tags and fused reporters may be left off the sequences shown.

Amino acid sequences for entries named in this document (tags omitted). A change or cut given only in a name is not applied to a line headed by its entry.
UniProt Q94KK6: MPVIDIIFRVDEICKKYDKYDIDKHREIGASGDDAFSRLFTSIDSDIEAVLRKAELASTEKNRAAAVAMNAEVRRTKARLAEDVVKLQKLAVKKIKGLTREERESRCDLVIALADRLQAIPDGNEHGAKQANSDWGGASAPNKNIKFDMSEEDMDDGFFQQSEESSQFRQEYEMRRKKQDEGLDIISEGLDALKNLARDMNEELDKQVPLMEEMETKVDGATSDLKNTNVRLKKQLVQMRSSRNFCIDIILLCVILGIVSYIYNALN

Target: MBP-SYP72 (Arabidopsis thaliana) (UniProt Q94KK6)
Assay: pull-down; MBP-SYP72 from E. coli on Ni-NTA His Bind resin; MSL8-6×Myc in total protein of infiltrated N. benthamiana leaves; blots with anti-MBP and anti-Myc; only the target purified

binding: binds
B1: MSL8-6×Myc (35S:MSL8-6×Myc, N. benthamiana leaves) (protein, UniProt F4IME2 1-908)
chain: MDFRNSFKSHSSYKQIRSPGDQSEPSPEHLPILHDHHPDHSGMVVDDQKPDSTRSSLDDGRNAPVERDASYKFWQDNTTGTSTDHTAVRTSDKDPIAISRKGDRLSGSFDFVHGKLPVDESPTKMVAGEPVNRQWRGRNNEEITLDVDQENDDVSHQTMPTPTSTARTSFDASREMRVSFNVRRAGGAFVAGSVPSSSSHSSSSSSATMRTNQDQPQLQEEEVVRCTSNMSFQRKSELISRVKTRSRLQDPPREEETPYSGWRSGQLKSGLLADIDEEDDPLAEEDVPDEYKRGKLDAITLLQWLSLVAIIAALACSLSIQSWKKVRVWNLHLWKWEVFLLVLICGRLVSGWGIRIVVFFIERNFLLRKRVLYFVYGVRRAVQNCLWLGLVLLAWHFLFDKKVQRETRSRFLPYVTKILVCFLLSTILWLIKTLVVKVLASSFHVSTYFDRIQEALFNQYVIETLSGPPMIEMSRIEEEEERAQDEIFKMQNAGANLPPDLCAAAFPPGKSGRVMNPKLSPIIPKSTTDNGISMEHLHRMNHKNISAWNMKRLMKIVRNVSLTTLDEQMLESTYEDESTRQIRSEKEAKAAARKIFKNVEQRGAKYIYLEDLMRFLREDEAMKTMGLFEGAPENKRISKSALKNWLVNAFRERRALALTLNDTKTAVNKLHHMINIVTAIVIVVIWLVLLEIASSKVLLFVSSQVVLLAFIFGNTVKTVFESIIFLFIVHPYDVGDRCEIDSVQLVVEEMNILTTVFLRYDNLKIMYPNSLLWQKSINNYYRSPDMGDAIEFCVHITTPLEKISVIKQRISNYIDNKPEYWYPQAKIIVKDLEDLHIVRLAIWPCHRINHQDMAERWTRRAVLVEEVIKILLELDIQHRFYPLDINVRTMPTVVSSRVPPGWSQNQPA
